Test results reported in PMC10612264, “A novel transcriptional repressor specifically regulates xylanase gene 1 in Trichoderma reesei”.

Molecular target: T1, XTR1 DBD (Trichoderma reesei QM9414) (UniProt G0RH11)
T1 sequence (looked up, limits assumed): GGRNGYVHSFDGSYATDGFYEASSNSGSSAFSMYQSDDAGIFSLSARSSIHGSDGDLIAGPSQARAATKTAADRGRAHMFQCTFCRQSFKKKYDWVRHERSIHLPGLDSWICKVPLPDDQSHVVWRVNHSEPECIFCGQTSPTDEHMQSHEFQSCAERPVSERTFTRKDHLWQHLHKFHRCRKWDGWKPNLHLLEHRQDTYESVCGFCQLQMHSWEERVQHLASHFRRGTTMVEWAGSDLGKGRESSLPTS
Experiment: EMSA
Conditions: EMSA: 10 mM Tris pH 7.5, 50 mM KCl, 1 mM DTT, 150 ng DNA, 20 C 30 min, 6% native PAGE at 4 C in 0.5x TBE, EtBr; recombinant protein; label: none (EtBr stain); probe letters rebuilt from the primers and the genome

## GATCATAGACGCAGCCAGCGACATGCAGTGCAATGTCATGGATGTTTTGTGGGTTACGTTCGTCCCTACAGAGTCACTGGCAGGCTACATGCATGTCATGGTCCCATATCGCCCATTCGACCACCGTCAGCCCAGTACTTGCTCGTGTCAATCTCCGTCAGTCGCGTGTGATCAGACATTCCAACTGGATCTGGGCCAGCCGGGCACTCTTTGCCTTGTCCTGTTTGACAGGTTCAATTTGCTCTGTATGCCACTTCTGTCCAGTCTGTTTAGTGAGCCAGACTGCTGAGACACTCTGAACCGAGGAGCAAGCGCCTCCACAGCCAAGAAGTTGAAGAAGACGGCAGACACCCACACAGTGACCACGAAGCTTTGTCACGCAGTATTGATCCCATCAACCACTAGCAAATCCCTAGACACCCCGAAAGGACTTCAACAGTGACCTAGCAGCAAAGCCGTGAGTCTCGGACGGCCTCTTGTTCAACTCAACCGACCTTCCAAGCTACAAAAACGACAAGGTTGGATGTCTGCCGTTTGCTGCCTCGCCACCAGCTGACTTTAGGCAAAACAGGTCATTGAATCCAGATCGGAGTCGACACTCGCATCCGTGCTCCGGGAGTCACGATCGAGACATGCCGCCCAAGCATGCAACCTGCCCCAGGGTCCGATTATATCCAATTTAGCCGCTGGACAAGCTGCATCCATGCCGCTCATCACCCCCGCAAATCACTTTCGGGTCCCGTCTTCTCCCAGATTGCTTTCATCGGCACTAGACCAATGG (double strand) [Pxyn2b (-1500 to -750)]
  binding result: no binding

## TATGCAGAATTCTTCCACATTCAAAACCTCTTCACATCATGATTTGAGCTTTGACTTCAATTCTCTTGATGAAACTCAGACATCATCAAGTGAGGTTGAAAGCGGCTCGTACAGTATCCTCGAAGCTTGGCATTTTGCCTAAAGCACGCCCTCCAGGTATCGGATCAAACGGCATAGGAGTGCCGGAATAGATTGAACGCCACCCGCAATATCGACACAAGCCGGTCCTAGTTAACTGCTGAAATATGGCAGTAATGCATCGAACCCGGCGCTTCGGGCCTCAAGCGGCGCGTTCCCCAGATCTGGGGTGCATCCGGCTAAGATGTCGCATTTAGCCTGCCAATCAAGTCAAGGGGCTTCATGTCGGACTTGCGGAGGATGTTGTATTCCAGTGGGCCGCATCTGCAATCTCATGGAGTTTTACGTAGTTGCTTGAGGCCATTTGCTGCAGAATTGTAGGACTAGTACAGGAGAAGGCCTTGGAGTGCAATGACTTGCCACAGAGGGACAAGCCATGGCCTTCCATTCTTTAACGGCTGAACCTAGTCATCCTTAAACAATGTCCCGGAAATTCCCAGCATGTAACAAATAAAATAGACGATGCACGAGTGTCTTGGTAGATGTAGCTGCTTTCACGGCATTGCGAACTAAGAACGCAGGGGCTACGAAGCCTAGAGCTCCTGTAAGTCT (double strand) [Pxyn1a (-750 to -91)]
  binding result: binds

Negatives hold for the conditions tested. Tags and fusion partners may be left off the protein sequences shown.
